Results published in patent US20150133367A1.
No constants are given. Whether binding was seen depends on the method and setting. A result given as binding can be weak or reduced; the word gives no strength.

Biological target: Calpain-1
Experiment: enzyme inhibition assay

| binding | Binder |
| --- | --- |
| binds | IPPRYCELLC (Cys6 and Cys10 (i,i+4) linked by alpha,alpha'-meta-xylylene) [… (SEQ ID NO:80)] |
| binds | LGKREVTIPPKYCELLC (Cys13 and Cys17 (i,i+4) linked by alpha,alpha'-meta-xylylene) [… (SEQ ID NO:67)] |
